Reference: US20230127263A1
Results are given in words; binding and its absence hold for the method and conditions named. Some entries that bind do so weakly or less than the wild type.

Chains of the proteins cited; added tags and fusions are not shown. Lines headed by an entry give the natural chain unless they say otherwise; changes in a name come on top. Residues count along the entry.
UniProt Q9NPF7: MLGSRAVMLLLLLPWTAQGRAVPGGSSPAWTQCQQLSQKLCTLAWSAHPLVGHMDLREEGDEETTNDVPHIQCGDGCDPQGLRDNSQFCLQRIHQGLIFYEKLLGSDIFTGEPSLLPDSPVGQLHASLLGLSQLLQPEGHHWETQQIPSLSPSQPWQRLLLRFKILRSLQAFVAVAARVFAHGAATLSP
UniProt P29460: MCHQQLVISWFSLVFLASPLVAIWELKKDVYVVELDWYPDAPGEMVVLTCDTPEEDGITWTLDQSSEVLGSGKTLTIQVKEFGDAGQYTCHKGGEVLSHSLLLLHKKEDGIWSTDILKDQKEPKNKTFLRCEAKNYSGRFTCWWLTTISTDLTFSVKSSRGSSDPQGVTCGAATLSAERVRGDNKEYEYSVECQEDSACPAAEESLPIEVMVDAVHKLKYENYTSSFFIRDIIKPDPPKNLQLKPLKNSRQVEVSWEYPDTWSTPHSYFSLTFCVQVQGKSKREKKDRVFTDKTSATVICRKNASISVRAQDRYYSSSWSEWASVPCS
UniProt Q5VWK5, residues 24-353: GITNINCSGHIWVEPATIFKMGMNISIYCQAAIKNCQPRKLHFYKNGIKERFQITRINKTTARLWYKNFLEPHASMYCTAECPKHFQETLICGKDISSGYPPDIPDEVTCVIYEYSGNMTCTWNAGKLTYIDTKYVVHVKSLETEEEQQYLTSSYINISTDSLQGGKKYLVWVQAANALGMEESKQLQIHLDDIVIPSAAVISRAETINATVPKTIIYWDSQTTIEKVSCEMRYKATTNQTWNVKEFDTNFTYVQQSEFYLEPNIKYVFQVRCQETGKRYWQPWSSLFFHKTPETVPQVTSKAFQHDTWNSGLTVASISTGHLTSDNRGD

Key:
[1] = target: T1, IL23 produced by p40-Td cells (human T cells transduced with human IL12B p40) (human) (UniProt Q9NPF7+P29460); test: sequestration of IL23 by soluble receptor (told again in the discussion)
[2] = target: T1, IL23 produced by p40-Td cells (human T cells transduced with human IL12B p40) (human); test: sequestration of IL23 from p40-Td supernatant, read by IL17 release of murine splenocytes (FIG. 10)

Substance: soluble recombinant human IL23R (rhIL23R) (from UniProt Q5VWK5 24-353) (receptor)
- binding [1]: binds
- binding [2]: binds
